No constants are given. Whether binding was seen depends on the method and setting. Binding seen in cells or lysates may run through a third protein. Some binding calls cover weakened binding; strength is not graded here.
Biological target: NOTCH1 receptor (human (endogenous in RBE and SSP-25)) (UniProt P46531)
Assay: co-IP; lysates of RBE and SSP-25 cells (Pierce lysis buffer, protease inhibitors) incubated with NOTCH1 antibody, MFAP5 antibody or control IgG, then Protein A/G Dynabeads; eluate analysed by Western blot

Amino acid sequences for entries named in this document (tags omitted). Residues count along the entry.
UniProt P46531, residues 19-2555: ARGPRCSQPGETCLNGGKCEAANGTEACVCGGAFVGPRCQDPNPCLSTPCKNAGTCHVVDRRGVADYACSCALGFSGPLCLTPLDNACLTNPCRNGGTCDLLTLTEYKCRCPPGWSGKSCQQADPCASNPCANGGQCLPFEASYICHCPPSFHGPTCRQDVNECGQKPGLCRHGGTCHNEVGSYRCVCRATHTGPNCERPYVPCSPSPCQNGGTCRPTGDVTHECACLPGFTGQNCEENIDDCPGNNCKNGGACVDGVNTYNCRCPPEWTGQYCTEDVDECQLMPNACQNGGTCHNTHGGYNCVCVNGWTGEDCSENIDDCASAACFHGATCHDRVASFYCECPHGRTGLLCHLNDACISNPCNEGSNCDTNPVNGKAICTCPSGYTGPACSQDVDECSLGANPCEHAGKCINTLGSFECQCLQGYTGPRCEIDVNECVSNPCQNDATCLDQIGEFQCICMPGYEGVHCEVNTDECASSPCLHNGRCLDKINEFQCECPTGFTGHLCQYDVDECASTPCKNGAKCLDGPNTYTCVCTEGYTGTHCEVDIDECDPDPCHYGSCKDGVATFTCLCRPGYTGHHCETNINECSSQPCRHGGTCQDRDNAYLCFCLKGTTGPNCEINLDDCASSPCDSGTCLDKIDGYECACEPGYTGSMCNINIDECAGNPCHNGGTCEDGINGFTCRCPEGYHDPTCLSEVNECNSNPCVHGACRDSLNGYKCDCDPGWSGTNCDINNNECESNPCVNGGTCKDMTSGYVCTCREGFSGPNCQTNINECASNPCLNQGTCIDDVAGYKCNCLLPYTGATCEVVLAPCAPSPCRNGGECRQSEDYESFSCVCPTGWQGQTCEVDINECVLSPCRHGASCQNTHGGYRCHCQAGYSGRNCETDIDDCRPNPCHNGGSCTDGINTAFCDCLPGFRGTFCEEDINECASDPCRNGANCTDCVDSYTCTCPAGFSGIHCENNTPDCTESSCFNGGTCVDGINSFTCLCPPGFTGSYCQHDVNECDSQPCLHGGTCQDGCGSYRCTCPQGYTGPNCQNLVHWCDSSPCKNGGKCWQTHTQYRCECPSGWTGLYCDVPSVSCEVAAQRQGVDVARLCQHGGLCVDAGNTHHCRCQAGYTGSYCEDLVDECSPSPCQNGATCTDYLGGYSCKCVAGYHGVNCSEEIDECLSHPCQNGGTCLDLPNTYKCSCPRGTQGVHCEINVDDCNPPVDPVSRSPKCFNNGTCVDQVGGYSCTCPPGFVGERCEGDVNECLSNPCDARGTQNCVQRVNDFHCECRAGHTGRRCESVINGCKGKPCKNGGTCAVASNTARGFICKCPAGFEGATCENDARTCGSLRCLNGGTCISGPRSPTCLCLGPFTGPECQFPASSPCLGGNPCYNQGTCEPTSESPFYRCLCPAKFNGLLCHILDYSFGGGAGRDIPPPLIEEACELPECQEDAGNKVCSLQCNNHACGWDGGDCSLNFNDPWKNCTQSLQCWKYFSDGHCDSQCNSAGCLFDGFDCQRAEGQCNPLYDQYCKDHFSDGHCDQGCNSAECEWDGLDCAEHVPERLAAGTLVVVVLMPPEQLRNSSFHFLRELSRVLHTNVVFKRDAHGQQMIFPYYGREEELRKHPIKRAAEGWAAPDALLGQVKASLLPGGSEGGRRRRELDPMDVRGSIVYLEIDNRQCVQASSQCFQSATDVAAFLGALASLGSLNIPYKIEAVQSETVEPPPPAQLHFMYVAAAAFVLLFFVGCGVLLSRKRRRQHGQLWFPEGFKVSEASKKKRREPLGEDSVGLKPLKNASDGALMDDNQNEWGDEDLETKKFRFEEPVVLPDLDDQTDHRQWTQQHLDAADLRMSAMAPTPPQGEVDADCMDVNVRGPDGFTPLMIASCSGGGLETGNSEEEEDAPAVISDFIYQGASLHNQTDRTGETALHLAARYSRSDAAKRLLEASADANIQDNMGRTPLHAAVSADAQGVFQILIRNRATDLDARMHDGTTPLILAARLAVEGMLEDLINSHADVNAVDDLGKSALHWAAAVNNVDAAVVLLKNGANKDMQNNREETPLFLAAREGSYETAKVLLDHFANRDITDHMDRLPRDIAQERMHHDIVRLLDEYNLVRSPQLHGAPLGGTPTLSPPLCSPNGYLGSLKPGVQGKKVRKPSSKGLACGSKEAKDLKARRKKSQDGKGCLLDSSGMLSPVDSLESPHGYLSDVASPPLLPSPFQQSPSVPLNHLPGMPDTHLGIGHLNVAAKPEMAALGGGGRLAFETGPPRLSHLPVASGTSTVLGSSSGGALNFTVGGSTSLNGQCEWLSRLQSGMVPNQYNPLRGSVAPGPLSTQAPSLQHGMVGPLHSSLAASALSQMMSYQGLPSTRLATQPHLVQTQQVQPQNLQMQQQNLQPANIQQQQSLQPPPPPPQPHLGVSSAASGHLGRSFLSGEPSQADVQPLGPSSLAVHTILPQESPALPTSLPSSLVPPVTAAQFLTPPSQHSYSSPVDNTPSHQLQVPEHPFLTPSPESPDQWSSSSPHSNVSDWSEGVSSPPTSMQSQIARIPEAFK

binding: binds
B1: Microfibrillar-associated protein 5 (protein, UniProt Q13361 22-173)
chain: IPLGVNSQRGDDVTQATPETFTEDPNLVNDPATDETVLAVLADIAPSTDDLASLSEKNTTAECWDEKFTCTRLYSVHRPVKQCIHQLCFTSLRRMYIVNKEICSRLVCKEHEAMKDELCRQMAGLPPRRLRRSNYFRLPPCENVDLQRPNGL
